Broadly, the AC50 is the concentration giving half of the maximal activity seen. Lower therefore signals greater potency.

Our source for the cell number change and AC50 values is PubChem BioAssay AID2685 (National Center for Advancing Translational Sciences (NCATS), 2010).

The test in a line: qHTS Assay for Lipid Storage Modulators in Drosophila S3 Cells.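 For cell number change: cells counted by Cell Tracker Red CMTPX staining in the red channel.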 The note with it: BODIPY lipid droplet fluorescence, 18-24 h; for cell number change: measured here: cell count max response, cells fed with added oleic acid. The procedure, abridged:
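Laser-scanning cytometry quantifies lipid droplet accumulation (500–530 nm total intensity; droplet/cell object ratio) in oleic acid-fed (400 uM added) Drosophila S3 cells treated with a concentration series. 20 uM Triacsin C defined 100% inhibition.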
(In general: Quantitative high-throughput screening tests each substance at several concentrations.)

The mark [1] stands for this setting: measured here: lipid fluorescence (Fed channel) AC50, cells fed with added oleic acid.
Setting [2] is: measured here: cell number channel AC50, cells fed with added oleic acid.

This is one part of the list. Shown are side measurements of this screen, not its main read-out; they come without a call. The list favours compounds with an active or inconclusive main result. Words in brackets tell the shape of the fitted curve; partial curves, single points and poor fits give uncertain potencies.

In the case of `O=C(CN1C(=O)NC2(CCCCC2)C1=O)Oc1ccc2ccc(=O)oc2c1`, the cell number change is -2.2%. Also, under setting [1], the AC50 is 0.326 µM [rising, single point].

As to `COc1ccc(N(CC(=O)NCCSC2CCCCC2)S(=O)(=O)c2ccccc2)c(OC)c1`, the cell number change stood at 2.05%. Besides, under setting [1], the AC50 was 29.1 µM [falling, single point].

As for `COCCNC(=S)NC12CC3CC(CC(C3)C1)C2`, the cell number change is -11.1%. In addition, the concentration at half-maximal activity (AC50) under setting [1] was 3.26 µM [falling, full curve].

Regarding `COc1cccc(C2NC(=O)c3ccccc3O2)c1OC` (stereo unspecified), the cell number change was -10.3%. For the same compound, the AC50 under setting [1] is 29.1 µM [falling, single point].

Take `COC(=O)[C@H](CC(C)C)NC(=O)CCc1nnc(COc2ccccc2)o1`: the AC50 under setting [1] was 8.2 µM [falling, partial curve].

Take `CCCCn1c(CNC(=O)C23CC4CC(CC(C4)C2)C3)nnc1SCC(=O)Nc1nnc(C)s1`: the cell number change turned out to be 6.16%. Moreover, under setting [2], the half-maximal activity concentration (AC50) is 0.651 µM [falling, full curve, poor fit]. Further, the AC50 under setting [1] is 0.651 µM [falling, full curve].

Take `COc1cc(-n2nnnc2SCC(=O)N2CCN(c3ccc(F)cc3)CC2)c(OC)cc1Cl`: the half-maximal activity concentration (AC50) under setting [1] is 18.4 µM [falling, single point].

For the compound `Cc1ccccc1N(C(=O)CNC(=O)c1ccco1)C(C(=O)NC1CCCC1)c1ccncc1` (stereo unspecified), the cell number change is 32.4%. In addition, the AC50 under setting [2] is 7.31 µM [rising, partial curve].

Regarding `COc1ccc(C(=O)/C=C\N2CCOCC2)cc1`, the cell number change was found to be 26.2%. The AC50 under setting [1] was 4.11 µM [rising, single point].

With `COc1ccc(CCN2C(=O)c3[nH]nc(-c4ccccc4O)c3C2c2cccc(Cl)c2)cc1` (stereo unspecified), the cell number change is -73%. In addition, the AC50 under setting [2] was 16.4 µM [falling, partial curve, poor fit]. Further, the AC50 under setting [1] was 16.4 µM [falling, partial curve].

Regarding `Cc1nc(S(=O)(=O)Cc2ccccc2)nc2c1CCC2`, the cell number change was found to be 52.9%. In addition, under setting [2], the AC50 is 6.51 µM [falling, single point]. Also, the AC50 under setting [1] is 5.8 µM [falling, single point].

Turning to `O=C(CNC(=O)c1ccc(-c2ccccc2)cc1)OCc1c(Cl)cccc1Cl`, the cell number change was found to be 8.45%. Under setting [1], the AC50 is 6.51 µM [rising, full curve].

On to `O=C(OCC(O)CN1CCCCC1)C12CC3CC(CC(C3)C1)C2` (stereo unspecified), for which the cell number change is 5.58%. The AC50 under setting [1] was 0.731 µM [rising, single point].

`Cc1ccc2[nH]c(C(=O)N3CCCC(Nc4ccc(F)cc4)C3)cc2c1` (stereo unspecified): the cell number change came out at 4.58%.

Regarding `Cc1ccc(C)c(OCCC(=O)OCC(=O)N(C)c2c(N)n(Cc3ccccc3)c(=O)[nH]c2=O)c1`, the cell number change was -38.4%. The AC50 under setting [2] was 0.00461 µM [falling, full curve, poor fit]. The AC50 under setting [1] is 6.51 µM [falling, partial curve].
